Results deposited as PubChem BioAssay AID1259308 (NCATS, 2017).
Screen: 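Knock-downs that increase output of a recombinant reporter protein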 (primary screen). System: human HEK293 embryonic kidney cells stably expressing firefly luciferase (HEK-CMV-Luc2-Hygro). Reagents: single siRNA against human genes, 0.8 pmol siRNA per well. Duration: 72 h. Read-out: 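Reporter luminescence and viable-cell signal on separate replicate plates, given as percent of non-targeting control and median/MAD z-scores, plus per-cell luciferase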. Reading the numbers: total luciferase, z-score and total luciferase, % of control: higher = more reporter protein produced; luciferase per cell, z-score: higher = more reporter output per viable cell; viable cells, % of control: higher = more viable cells. Rule for the call: 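An siRNA counts as active if its total luciferase robust z-score exceeds 3; genes with two or more such siRNAs out of three were retested with fresh siRNAs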. Calls: active = raised luciferase; inactive = no rise.
This is a random part of about 59,000 reagents. About 1,510 of them (2.6%) were called active. 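Calls use total luciferase alone and ignore viability, so some active siRNAs may act by altering cell number.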 The numbers tell different reagents against one gene apart.

no.	gene symbol	reagent no.	total luciferase, z-score	total luciferase, % of control	luciferase per cell, z-score	viable cells, % of control	call
1	CPNE8 (GeneID 144402)	1	0.214	86.1	0.138	92.8	inactive
2	CPNE8 (GeneID 144402)	2	0.183	85.5	0.361	86.9	inactive
3	CPNE8 (GeneID 144402)	3	-0.678	68.4	-0.531	87.9	inactive
4	CPXM2 (GeneID 119587)	1	-2.04	41.4	-2.22	83	inactive
5	CPXM2 (GeneID 119587)	2	-0.695	68.1	-1.34	108	inactive
6	CPXM2 (GeneID 119587)	3	-0.769	66.6	-1.55	112	inactive
7	SSMEM1 (GeneID 136263)	1	-0.108	79.7	0.00902	88.9	inactive
8	SSMEM1 (GeneID 136263)	2	-2.56	31	-3.6	89.6	inactive
9	SSMEM1 (GeneID 136263)	3	0.351	88.9	0.258	92.8	inactive
10	DZIP1 (GeneID 22873)	1	-0.726	67.4	-0.634	89.1	inactive
11	DZIP1 (GeneID 22873)	2	-0.668	68.6	0.079	75.1	inactive
12	DZIP1 (GeneID 22873)	3	0.0194	82.3	0.277	85.5	inactive
13	ZNF416 (GeneID 55659)	1	-1.33	55.4	-0.206	65.3	inactive
14	ZNF416 (GeneID 55659)	2	0.46	91	0.0976	99.1	inactive
15	ZNF416 (GeneID 55659)	3	0.356	89	0.389	89.7	inactive
16	PAQR5 (GeneID 54852)	1	-1.15	58.9	-0.981	85.2	inactive
17	PAQR5 (GeneID 54852)	2	0.0672	83.2	0.13	89.9	inactive
18	PAQR5 (GeneID 54852)	3	2.34	128	1.58	94.7	inactive
19	DNAJC21 (GeneID 134218)	1	0.345	88.7	-0.0542	101	inactive
20	DNAJC21 (GeneID 134218)	2	0.518	92.2	0.581	88.4	inactive
21	DNAJC21 (GeneID 134218)	3	0.391	89.7	0.162	96	inactive
22	SOX17 (GeneID 64321)	1	1.8	118	1.55	87.4	inactive
23	SOX17 (GeneID 64321)	2	0.0946	83.8	-0.0355	94.5	inactive
24	SOX17 (GeneID 64321)	3	-0.301	75.9	-0.57	98.6	inactive
25	FABP5 (GeneID 2171)	1	-0.387	74.2	-0.55	95.8	inactive
26	FABP5 (GeneID 2171)	2	2.03	122	2.28	75	inactive
27	FABP5 (GeneID 2171)	3	-0.234	77.2	-0.0622	87.7	inactive
28	SSB (GeneID 6741)	1	1.73	116	1.32	91.7	inactive
29	SSB (GeneID 6741)	2	-0.379	74.3	-0.403	92.4	inactive
30	SSB (GeneID 6741)	3	2.29	127	1.81	88.5	inactive
31	OIP5 (GeneID 11339)	1	-1.38	54.5	-1.86	99.4	inactive
32	OIP5 (GeneID 11339)	2	0.354	88.9	-0.149	103	inactive
33	OIP5 (GeneID 11339)	3	-0.956	62.9	-0.956	90.4	inactive
34	SLC6A6 (GeneID 6533)	1	-0.465	72.6	-1.14	110	inactive
35	SLC6A6 (GeneID 6533)	2	0.819	98.2	-0.216	116	inactive
36	SLC6A6 (GeneID 6533)	3	1.61	114	0.697	106	inactive
37	F7 (GeneID 2155)	1	-0.76	66.8	-0.443	83.9	inactive
38	F7 (GeneID 2155)	2	-0.547	71	-1.61	121	inactive
39	F7 (GeneID 2155)	3	0.69	95.6	2.26	58.9	inactive
40	TSPAN7 (GeneID 7102)	1	0.532	92.5	-0.00076	103	inactive
41	TSPAN7 (GeneID 7102)	2	1.8	118	1.24	95	inactive
42	TSPAN7 (GeneID 7102)	3	0.308	88	0.54	85.3	inactive
43	MRPL1 (GeneID 65008)	1	0.485	91.5	0.145	98.5	inactive
44	MRPL1 (GeneID 65008)	2	0.758	97	0.0157	108	inactive
45	MRPL1 (GeneID 65008)	3	-0.285	76.2	-0.498	97.1	inactive
46	ZBED10P (GeneID 113763)	1	2.21	126	2.14	80.1	inactive
47	ZBED10P (GeneID 113763)	2	0.114	84.1	0.872	74.7	inactive
48	ZBED10P (GeneID 113763)	3	0.216	86.2	-0.0516	97.6	inactive
49	RANBP1 (GeneID 5902)	1	-0.298	76	-0.343	92.9	inactive
50	RANBP1 (GeneID 5902)	2	-0.719	67.6	-1.59	115	inactive
51	RANBP1 (GeneID 5902)	3	1.83	118	1.13	98.3	inactive
52	DEGS2 (GeneID 123099)	1	-1.77	46.8	-1.31	73.8	inactive
53	DEGS2 (GeneID 123099)	2	-0.46	72.7	-0.522	93.2	inactive
54	DEGS2 (GeneID 123099)	3	-0.232	77.3	-0.379	95.4	inactive
55	BTNL3 (GeneID 10917)	1	1.48	111	1.21	90.5	inactive
56	BTNL3 (GeneID 10917)	2	0.228	86.4	-0.0367	97.5	inactive
57	BTNL3 (GeneID 10917)	3	-0.792	66.1	-0.408	82.3	inactive

Entries above whose target name starts with M or m:
gene symbol	reagent no.	total luciferase, z-score	total luciferase, % of control	luciferase per cell, z-score	viable cells, % of control	call
MRPL1 (GeneID 65008)	1	0.485	91.5	0.145	98.5	inactive
MRPL1 (GeneID 65008)	2	0.758	97	0.0157	108	inactive
MRPL1 (GeneID 65008)	3	-0.285	76.2	-0.498	97.1	inactive
